Assay in all cases: co-IP
Test [1] addresses T1, 3XFLAG-FIGNL1, full length (human) (UniProt Q6PIW4).
T1 sequence: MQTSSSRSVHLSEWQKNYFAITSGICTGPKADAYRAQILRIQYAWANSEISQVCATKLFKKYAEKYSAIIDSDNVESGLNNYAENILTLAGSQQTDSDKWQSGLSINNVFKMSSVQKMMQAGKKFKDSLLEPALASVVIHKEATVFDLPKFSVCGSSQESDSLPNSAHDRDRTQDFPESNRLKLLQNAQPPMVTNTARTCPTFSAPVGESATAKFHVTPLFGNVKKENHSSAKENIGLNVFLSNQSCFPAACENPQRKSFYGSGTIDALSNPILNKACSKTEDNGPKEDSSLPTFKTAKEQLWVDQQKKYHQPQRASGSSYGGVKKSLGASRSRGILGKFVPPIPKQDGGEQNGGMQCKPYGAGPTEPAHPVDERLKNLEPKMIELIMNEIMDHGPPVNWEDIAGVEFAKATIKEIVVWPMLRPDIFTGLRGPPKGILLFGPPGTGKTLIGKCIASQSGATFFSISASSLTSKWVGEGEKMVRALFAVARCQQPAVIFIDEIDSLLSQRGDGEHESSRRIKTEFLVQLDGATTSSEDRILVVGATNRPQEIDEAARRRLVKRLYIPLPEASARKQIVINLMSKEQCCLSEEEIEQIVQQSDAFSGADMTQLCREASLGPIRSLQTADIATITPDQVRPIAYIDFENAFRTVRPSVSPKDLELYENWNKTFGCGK

Test [2] concerns the target T1, 3XFLAG-FIGNL1, full length (human). The source holds these as a separate data set.
Test [3] concerns the target T2, FIGNL1 N-terminal 120aa region, 3X-FLAG and SV40 NLS tagged (human), Q6PIW4.
T2 chain: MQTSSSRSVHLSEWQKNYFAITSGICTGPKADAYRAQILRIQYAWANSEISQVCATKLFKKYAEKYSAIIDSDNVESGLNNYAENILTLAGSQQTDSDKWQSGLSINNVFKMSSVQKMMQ
The conditions noted are these: remark: other sources report otherwise.

Test [4] concerns the target T3, 3XFlag-RADIF, full length, Q9NSG2.
T3 chain: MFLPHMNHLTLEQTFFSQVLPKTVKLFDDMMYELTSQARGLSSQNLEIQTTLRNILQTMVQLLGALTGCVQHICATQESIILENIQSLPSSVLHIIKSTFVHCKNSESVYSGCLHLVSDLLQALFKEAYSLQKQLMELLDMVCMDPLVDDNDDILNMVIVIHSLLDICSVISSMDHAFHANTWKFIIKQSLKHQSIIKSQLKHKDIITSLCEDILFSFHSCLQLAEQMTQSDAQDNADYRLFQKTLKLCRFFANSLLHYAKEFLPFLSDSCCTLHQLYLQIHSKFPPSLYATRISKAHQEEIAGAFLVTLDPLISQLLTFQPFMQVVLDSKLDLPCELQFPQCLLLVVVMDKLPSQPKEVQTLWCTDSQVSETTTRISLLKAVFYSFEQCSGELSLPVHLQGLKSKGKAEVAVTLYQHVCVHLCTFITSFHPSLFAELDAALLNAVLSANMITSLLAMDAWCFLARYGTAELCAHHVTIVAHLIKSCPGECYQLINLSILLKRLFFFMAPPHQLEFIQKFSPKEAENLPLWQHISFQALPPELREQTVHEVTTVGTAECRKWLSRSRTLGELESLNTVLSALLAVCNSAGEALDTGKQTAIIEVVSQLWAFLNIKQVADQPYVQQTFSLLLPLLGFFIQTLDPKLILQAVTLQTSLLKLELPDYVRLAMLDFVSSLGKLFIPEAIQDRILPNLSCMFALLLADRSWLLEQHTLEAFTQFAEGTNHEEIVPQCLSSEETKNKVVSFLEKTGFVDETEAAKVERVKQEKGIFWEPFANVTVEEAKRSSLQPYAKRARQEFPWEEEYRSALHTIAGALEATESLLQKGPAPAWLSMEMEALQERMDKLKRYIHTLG
The conditions noted are these: remark: other sources report otherwise.

Test [5] concerns the target T4, 3XFlag-RADIF, full length (UniProt Q9NSG2).
T4 sequence: T3 chain

Read-outs that look alike come from different tables or passages of the source. Results are given in words; binding and its absence hold for the method and conditions named. In cells and extracts the contact can be indirect. Some results given as binding are weak or reduced against the parent protein; the word gives no strength. Sequences can lack the tags named with a protein.

Take “HA-tagged RAD51 (from UniProt Q06609 1-339)”: in test [1], the binding entry is “binds”.

B1: GFP-tagged RADIF (c1orf112) (protein, UniProt Q9NSG2 1-853)
chain: T3 chain
Regarding B1, in test [2], the binding result was “binds”.

B2: GFP-tagged RADIF (c1orf112), Q9NSG2 1-853 (protein)
chain: T3 chain
Take B2: the binding result in test [3] was “binds”.

B3: HA-tagged RAD51, Q06609 1-339 (protein)
chain: MAMQMQLEANADTSVEEESFGPQPISRLEQCGINANDVKKLEEAGFHTVEAVAYAPKKELINIKGISEAKADKILAEAAKLVPMGFTTATEFHQRRSEIIQITTGSKELDKLLQGGIETGSITEMFGEFRTGKTQICHTLAVTCQLPIDRGGGEGKAMYIDTEGTFRPERLLAVAERYGLSGSDVLDNVAYARAFNTDHQTQLLYQASAMMVESRYALLIVDSATALYRTDYSGRGELSARQMHLARFLRMLLRLADEFGVAVVITNQVVAQVDGAAMFAADPKKPIGGNIIAHASTTRLYLRKGRGETRICKIYDSPCLPEAEAMFAINADGVGDAKD
For the molecule B3, in test [4], the binding result is on record as “binds”.

B4: endogenous FIGNL1 (protein, UniProt Q6PIW4 1-674)
chain: T1 sequence
As to B4, the binding result in test [5] is given as “binds”.

B5: FIGNL1-GFP (protein, UniProt Q6PIW4 1-674)
chain: T1 sequence
On to B5, for which the binding entry in test [5] is given as “binds”.

The values are drawn from doi:10.1101/2023.09.25.556595.
